Laboratory results taken from publication PMC9440895.
Results are given in words; binding and its absence hold for the method and conditions named. In cells and extracts the contact can be indirect. Here binding means that the protein was enriched with, or labelled near, the bait; the list need not be complete.

Target: T1, SET and MYND domain containing 3 (SMYD3) (human (endogenous in OCI-LY8)) (UniProt Q9H7B4)
T1 sequence: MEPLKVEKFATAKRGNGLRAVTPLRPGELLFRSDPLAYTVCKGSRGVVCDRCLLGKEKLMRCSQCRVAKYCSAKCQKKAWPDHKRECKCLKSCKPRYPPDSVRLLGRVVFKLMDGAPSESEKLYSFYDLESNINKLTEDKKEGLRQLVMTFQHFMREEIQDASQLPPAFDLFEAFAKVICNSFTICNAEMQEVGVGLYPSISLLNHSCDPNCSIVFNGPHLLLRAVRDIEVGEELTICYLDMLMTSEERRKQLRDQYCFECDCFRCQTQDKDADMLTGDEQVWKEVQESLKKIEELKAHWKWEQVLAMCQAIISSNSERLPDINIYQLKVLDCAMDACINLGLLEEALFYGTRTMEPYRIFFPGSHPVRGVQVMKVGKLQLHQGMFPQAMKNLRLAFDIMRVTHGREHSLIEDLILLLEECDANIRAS
Assay: affinity purification with mass spectrometry; endogenous co-IP with an anti-SMYD3 antibody from OCI-LY8 whole cell lysate (RIPA lysis buffer), protein A/G agarose beads, five washes with PBS, SDS-PAGE, Coomassie-stained bands excised, trypsin, nano-HPLC-MS/MS; IgG as control

binding: binds
B1: Activating Transcription Factor 7 Interacting Protein (ATF7IP) (protein, UniProt Q6VMQ6 1-1270)
chain: MDSLEEPQKKVFKARKTMRVSDRQQLEAVYKVKEELLKTDVKLLNGNHENGDLDPTSPLENMDYIKDKEEVNGIEEICFDPEGSKAEWKETPCILSVNVKNKQDDDLNCEPLSPHNITPEPVSKLPAEPVSGDPAPGDLDAGDPASGVLASGDSTSGDPTSSEPSSSDAASGDATSGDAPSGDVSPGDATSGDATADDLSSGDPTSSDPIPGEPVPVEPISGDCAADDIASSEITSVDLASGAPASTDPASDDLASGDLSSSELASDDLATGELASDELTSESTFDRTFEPKSVPVCEPVPEIDNIEPSSNKDDDFLEKNGADEKLEQIQSKDSLDEKNKADNNIDANEETLETDDTTICSDRPPENEKKVEEDIITELALGEDAISSSMEIDQGEKNEDETSADLVETINENVIEDNKSENILENTDSMETDEIIPILEKLAPSEDELTCFSKTSLLPIDETNPDLEEKMESSFGSPSKQESSESLPKEAFLVLSDEEDISGEKDESEVISQNETCSPAEVESNEKDNKPEEEEQVIHEDDERPSEKNEFSRRKRSKSEDMDNVQSKRRRYMEEEYEAEFQVKITAKGDINQKLQKVIQWLLEEKLCALQCAVFDKTLAELKTRVEKIECNKRHKTVLTELQAKIARLTKRFEAAKEDLKKRHEHPPNPPVSPGKTVNDVNSNNNMSYRNAGTVRQMLESKRNVSESAPPSFQTPVNTVSSTNLVTPPAVVSSQPKLQTPVTSGSLTATSVLPAPNTATVVATTQVPSGNPQPTISLQPLPVILHVPVAVSSQPQLLQSHPGTLVTNQPSGNVEFISVQSPPTVSGLTKNPVSLPSLPNPTKPNNVPSVPSPSIQRNPTASAAPLGTTLAVQAVPTAHSIVQATRTSLPTVGPSGLYSPSTNRGPIQMKIPISAFSTSSAAEQNSNTTPRIENQTNKTIDASVSKKAADSTSQCGKATGSDSSGVIDLTMDDEESGASQDPKKLNHTPVSTMSSSQPVSRPLQPIQPAPPLQPSGVPTSGPSQTTIHLLPTAPTTVNVTHRPVTQVTTRLPVPRAPANHQVVYTTLPAPPAQAPLRGTVMQAPAVRQVNPQNSVTVRVPQTTTYVVNNGLTLGSTGPQLTVHHRPPQVHTEPPRPVHPAPLPEAPQPQRLPPEAASTSLPQKPHLKLARVQSQNGIVLSWSVLEVDRSCATVDSYHLYAYHEEPSATVPSQWKKIGEVKALPLPMACTLTQFVSGSKYYFAVRAKDIYGRFGPFCDPQSTDVISSTQSS
